In all, about 31,000 sequences went through this assay and about 1,400 (4.5%) were called active.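 The calls were made as follows: active = median seed-adjusted z-score above 1 or below -1; inactive = the rest.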 The list shows a part of the results.
Experiment: Novel Modifiers of Survival Motor Neuron (SMN) Protein: Gene Identification via Genome-wide siRNA Screen;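 also: luminescence tracks full-length SMN protein made from the SMN2 reporter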
Settings: HEK293T SMN2-luciferase reporter, siRNA knockdown, 72 h; actives lie on both sides
Method in brief: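 Each of three siRNAs per gene is reverse-transfected (1 pmol) into reporter HEK293T cells whose luciferase output tracks SMN protein level. After 72 h culture, ONE-Glo luminescence is control-normalized, log10-transformed and MAD-standardized; Common Seed Analysis deprioritizes seed-driven hits.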
For GGCUACCUGUGCUACUCAGTT against KRTAP23-1, the median seed-adjusted z-score was inactive: 0.647. With CAAGCACUGUCGCAAGAAATT against MEGF6 the median seed-adjusted z-score was inactive: 0. With GGAUGAAGGUAGUUACGUUTT against RAVER2 the median seed-adjusted z-score was inactive: -0.258. In the case of GAAUUUUCUUCAUCACAUATT against INSL6, the median seed-adjusted z-score is reported as inactive: 0.777. With GCAUGAGGCUCUUCACCAATT against USP2 the median seed-adjusted z-score was inactive: -0.0321. With CAGAUAUUUUAACACUGAATT against RAD51L1 the median seed-adjusted z-score was inactive: 0. For GUAUAAAGGUGACAUAUAUTT against HSPA4, the median seed-adjusted z-score was inactive: 0.143. In the case of CGAUCUCAGCAGGCCUAUATT against GALT, the median seed-adjusted z-score is reported as inactive: 0.484. For GGGAAAUGUUGAAGCGCCATT against GRINL1A, the median seed-adjusted z-score was inactive: 0. For CAAUCUAUGAGAUUCGUAATT against GJD2, the median seed-adjusted z-score was inactive: -0.229. For CAGCGAUGUUGGUUAGUGATT against PDS5A, the median seed-adjusted z-score was inactive: -0.29. In the case of GCAAGAUUGAAACCAUAGATT against HNRNPA3, the median seed-adjusted z-score is reported as inactive: 0.915. With GAAAUACCCUAUUACCAAATT against MED26 the median seed-adjusted z-score was active: -1.86. With GGGUGUCUGCGAUUAUCUUTT against WDFY1 the median seed-adjusted z-score was inactive: 0.979. In the case of CUGUUAGAAUGAUUGCUGATT against GJA3, the median seed-adjusted z-score is reported as inactive: 0.833. For CAUUAGAAAUGUUGAGGUUTT against PCGF5, the median seed-adjusted z-score was inactive: 0.25. With GCAGUGAAAUUUUGGAGGUTT against ZSCAN10 the median seed-adjusted z-score was inactive: 0. In the case of GGAGCGAAAGAUUGCCUAATT against STAM2, the median seed-adjusted z-score is reported as inactive: -0.24. In the case of AGAACUCACCUCCUGAUUATT against YY1, the median seed-adjusted z-score is reported as active: 1.94. For CCAUGGGCUUGAUUGCCUUTT against CD1D, the median seed-adjusted z-score was inactive: -0.579. With AUGCUGAUCAGGAAAAGUATT against TEX13A the median seed-adjusted z-score was active: -1.22. For GAGACAUCGUUGUGCGGAATT against CDYL2, the median seed-adjusted z-score was inactive: -0.379. With GCCUUAGCAAAUAUCCUUATT against HMGCLL1 the median seed-adjusted z-score was inactive: 0.275. For GGAUAUCAAUUAUUACGCUTT against LIFR, the median seed-adjusted z-score was inactive: 0.031. In the case of CAUUUUCCGUAUUUUGCAATT against FOXN3, the median seed-adjusted z-score is reported as inactive: -0.636. For GGAAGAUUUUUGGUUCUAUTT against KCND2, the median seed-adjusted z-score was inactive: -0.245. In the case of CAUUGACUACUAUAAGAAATT against FGFR4, the median seed-adjusted z-score is reported as inactive: 0.0825. For GAUGAGGCAUGGUACUUCUTT against SIGLEC11, the median seed-adjusted z-score was inactive: -0.395. With GGCUAGUGGUGACAAAUGUTT against SRD5A3 the median seed-adjusted z-score was inactive: -0.165. For CGUAAAUCCCUAAUCUUUATT against FOXJ1, the median seed-adjusted z-score was inactive: -0.553. With CCACCUACAGAGUGUCCUATT against EMID2 the median seed-adjusted z-score was inactive: 0.0465. For CCAGUUGUCUAAACUAGGATT against DHRS7, the median seed-adjusted z-score was inactive: 0.255. In the case of CACUUACCCUCCUCAAGUUTT against SERPINF2, the median seed-adjusted z-score is reported as inactive: 0.629. For AGCCGUUUGUUGACACUAATT against NCK2, the median seed-adjusted z-score was inactive: -0.397. For GCCUACAUGUGCAUCCUCATT against GPR45, the median seed-adjusted z-score was inactive: 0.0287. With GGUUGAUGGAUUAUCUCAATT against ATP11C the median seed-adjusted z-score was inactive: 0.102. For GCAUGUCAGACUUCGAGAATT against PIGR, the median seed-adjusted z-score was inactive: -0.35. With GCUCAUGUACUGCUACGUATT against NTSR2 the median seed-adjusted z-score was inactive: -0.125. For GGAGAAUUGUUUUGCCUGATT against ZBTB43, the median seed-adjusted z-score was inactive: 0.143. With CCAUUGACAUCAAAUGUGATT against HES6 the median seed-adjusted z-score was inactive: 0.71. With GGUAUAUGCUCGUAUGUCATT against RANBP17 the median seed-adjusted z-score was inactive: -0.123. With GGACUAAGCUUGCACUCAATT against HSPA2 the median seed-adjusted z-score was inactive: -0.0343. For GCUCGGUGGAAAAACGUGATT against SCN3A, the median seed-adjusted z-score was inactive: -0.0556. For GCAGCAGUAUUCUCGAGAATT against NRIP1, the median seed-adjusted z-score was inactive: 0.789. With GGCAGUUCAGUAGCUCUAATT against DHX58 the median seed-adjusted z-score was inactive: -0.302. For GGGCGGUCAUGGUUUUGAATT against CHST13, the median seed-adjusted z-score was inactive: -0.447. For CUAAUUCAACAUUACAUCATT against ZNF550, the median seed-adjusted z-score was inactive: 0.131. With UGACCUUGCCGAGCACUUUTT against SLC16A11 the median seed-adjusted z-score was inactive: -0.396. For GCGAGAAAGUUUACGGGAATT against KLF13, the median seed-adjusted z-score was inactive: -0.501. For GCUCAUACCUCGGAUGUCATT against GPR31, the median seed-adjusted z-score was inactive: -0.0381. With GUCUUUCAGGUGUACCCAUTT against GATA1 the median seed-adjusted z-score was inactive: 0.371. With GCUAAUCUGUGGAGGAAAATT against EXDL2 the median seed-adjusted z-score was inactive: -0.0717. In the case of CAGCUACCAUGUCCCAGAUTT against CYC1, the median seed-adjusted z-score is reported as inactive: -0.47. With GCGAUUGUGCAGAAACAGATT against ZNF70 the median seed-adjusted z-score was inactive: -0.558. For CGGAUGAAGCUGACAGUGATT against 9-Sep, the median seed-adjusted z-score was inactive: -0.0175. For GGAAGACGGUGAACCAGAATT against SLC13A2, the median seed-adjusted z-score was inactive: 0.172. With GGUCAAUCCUAGUAUCUCUTT against NCOA1 the median seed-adjusted z-score was inactive: 0.537. With CCAUCUACCCGGGCACUUUTT against RTN4RL2 the median seed-adjusted z-score was inactive: -0.168. With CCAAAAUUGAAGUAAUAGATT against GTF2E2 the median seed-adjusted z-score was active: -1.32. In the case of GGAUCUUUCAGCGAAUAAATT against LRGUK, the median seed-adjusted z-score is reported as inactive: 0.166. For GAUCGCUUCAGUAAACUAATT against RIOK3, the median seed-adjusted z-score was inactive: 0.0267. With GGAGUGUUUACAUCGUUUUTT against RNF2 the median seed-adjusted z-score was inactive: 0.354. With AGACCAAAGUACACGUUCATT against RAB39B the median seed-adjusted z-score was inactive: 0.485. For UGGAUUCCCUGUUCUUUGATT against PNMT, the median seed-adjusted z-score was inactive: -0.559. For GGCUGUUCCUCUAACACUATT against PIK3R5, the median seed-adjusted z-score was inactive: 0.799. In the case of AGUUCAUCUCGGAAGCACATT against LMTK3, the median seed-adjusted z-score is reported as inactive: 0. In the case of GACAUCGCAUGGUACAAGATT against NFASC, the median seed-adjusted z-score is reported as inactive: 0.594. For GGCAUUGAGUGGUAUAGGATT against HS3ST5, the median seed-adjusted z-score was inactive: -0.725. In the case of AGAAUUUUCUACACCGAGATT against CSNK1A1L, the median seed-adjusted z-score is reported as inactive: -0.5. For ACUUCACAGUGACACUGGATT against FPGS, the median seed-adjusted z-score was inactive: -0.853. In the case of CAAUCAAACUAUCGCUUCATT against TRIM4, the median seed-adjusted z-score is reported as inactive: 0. In the case of CGAGAACGGCAUAACGAGATT against CDC42BPB, the median seed-adjusted z-score is reported as inactive: -0.556. With GCAGAUAUGCAAUCAAAGATT against KIF1C the median seed-adjusted z-score was inactive: 0.749. With GGCUUGAUGGAACCACGAATT against SMARCA4 the median seed-adjusted z-score was inactive: 0.223. For CCACGACUUCAGACAUCAATT against SFTPA2B, the median seed-adjusted z-score was inactive: -0.016. In the case of GCCUUGAGACUGACCGUAATT against SIRPG, the median seed-adjusted z-score is reported as inactive: -0.109. With GGACCUUUUUGUUAAGUCATT against RASD1 the median seed-adjusted z-score was inactive: 0.674. In the case of GAAAUUUCUUAGGAACUCATT against ADH1B, the median seed-adjusted z-score is reported as inactive: 0.325. In the case of GACUUCUAGUGAUGAGAAATT against PPIH, the median seed-adjusted z-score is reported as inactive: -0.174. For GCAACACCGACGUAAAGAATT against ALOX5, the median seed-adjusted z-score was inactive: -0.201. In the case of AGAUCCAAAUUGAGAUGGATT against ZNF221, the median seed-adjusted z-score is reported as inactive: -0.536. For AGCCGUGGAUGGUAGAUCUTT against ZNF2, the median seed-adjusted z-score was inactive: -0.119. With CCUUGUGCGUUACAGAAGATT against SCARA3 the median seed-adjusted z-score was inactive: -0.05. With GAGUAAAGGUUUUAUUACATT against SLC25A16 the median seed-adjusted z-score was inactive: 0.0479. In the case of CCCUUUCCAUAGCCCAGGATT against RBP3, the median seed-adjusted z-score is reported as inactive: 0. With GCUGAUCUCCGUAGAUACATT against PPY the median seed-adjusted z-score was inactive: -0.0804. With GGCCCUAUUCUGUCACGAATT against TRIM28 the median seed-adjusted z-score was inactive: -0.718. In the case of GCUUUGGAGUCACAGGUCATT against EYA3, the median seed-adjusted z-score is reported as inactive: -0.0191. In the case of AGAACAUCAUCGCGCGGGATT against FOXB1, the median seed-adjusted z-score is reported as inactive: 0.223. For GAAUGUUAUGAUGAACUAATT against ZNF430, the median seed-adjusted z-score was inactive: 0.681. In the case of GCGUCUUGCUGCUACUCAATT against BMPER, the median seed-adjusted z-score is reported as inactive: -0.684. In the case of CUUUAAAAUUAGGACCAUATT against RAB8A, the median seed-adjusted z-score is reported as inactive: -0.0436. For CUGUAUGAACUAAAAGUAATT against SOX1, the median seed-adjusted z-score was inactive: 0.415. With CAGCUAAACAGAACGAAAATT against PFDN1 the median seed-adjusted z-score was inactive: 0.212. With GGACUGAAGUGGUGAUUGATT against CAPN6 the median seed-adjusted z-score was inactive: 0.0288. With GCCUUAUACUGGAAGAAGATT against KITLG the median seed-adjusted z-score was inactive: 0.119. For CUGCUAAACUUGAACCGAATT against TM9SF2, the median seed-adjusted z-score was active: 1.09. With CAGUGGACGUGAGAACUAATT against AIFM3 the median seed-adjusted z-score was inactive: -0.727. For CCAAUACAGUGGAACCUAUTT against ATXN1, the median seed-adjusted z-score was inactive: -0.024. For GCAUGUUGAUGCCCGAAGATT against SERPINB1, the median seed-adjusted z-score was inactive: 0.734. In the case of CUGAGAUUAUUGAAUAUCATT against TEC, the median seed-adjusted z-score is reported as inactive: 0.258. In the case of CAGUGAUGAUGAUUCUGAATT against SNRK, the median seed-adjusted z-score is reported as inactive: 0.463. With CAUCCAUAGUUGAUCGAGATT against DSG1 the median seed-adjusted z-score was inactive: 0.187. In the case of GGAUGAUUCGGAAGGUGAATT against ZNF467, the median seed-adjusted z-score is reported as inactive: 0. In the case of GGAUCUACAGUUAUGGUCATT against NIPA2, the median seed-adjusted z-score is reported as inactive: -0.103. For CACGGAUUCUUGUUGGAAATT against RAB33B, the median seed-adjusted z-score was inactive: -0.758. With CUAUUGUAUUUCUAUCAUATT against CXCL6 the median seed-adjusted z-score was inactive: 0.802.

Source: PubChem BioAssay AID1347426 (Functional Genomics Laboratory (NCATS/FGL), 2020)
